Test results: ChEMBL document CHEMBL4411333, “Optimization of Fused Bicyclic Allosteric SHP2 Inhibitors” (J Med Chem, 2019)
≈ marks a conversion by molar mass, not a printed value.

Experiment: physchem
Details: buffer, pH 6.8

C[C@@H]1OCC2(CCN(c3nc4[nH]nc(-c5cccc(Cl)c5Cl)c4c(=O)n3C)CC2)[C@@H]1N
solubility thermodynamic: 420 µM (≈ 195 µg/mL)
